Source: patent US8106190B2, “2-aminobenzamide derivatives” (Astellas Pharma Inc., priority 2005, dated 2012)
Some of these results come from one statement about several compounds together.

By UniProt entry, the sequences of proteins in these tests, tags left out.
UniProt Q8NER1, whole entry: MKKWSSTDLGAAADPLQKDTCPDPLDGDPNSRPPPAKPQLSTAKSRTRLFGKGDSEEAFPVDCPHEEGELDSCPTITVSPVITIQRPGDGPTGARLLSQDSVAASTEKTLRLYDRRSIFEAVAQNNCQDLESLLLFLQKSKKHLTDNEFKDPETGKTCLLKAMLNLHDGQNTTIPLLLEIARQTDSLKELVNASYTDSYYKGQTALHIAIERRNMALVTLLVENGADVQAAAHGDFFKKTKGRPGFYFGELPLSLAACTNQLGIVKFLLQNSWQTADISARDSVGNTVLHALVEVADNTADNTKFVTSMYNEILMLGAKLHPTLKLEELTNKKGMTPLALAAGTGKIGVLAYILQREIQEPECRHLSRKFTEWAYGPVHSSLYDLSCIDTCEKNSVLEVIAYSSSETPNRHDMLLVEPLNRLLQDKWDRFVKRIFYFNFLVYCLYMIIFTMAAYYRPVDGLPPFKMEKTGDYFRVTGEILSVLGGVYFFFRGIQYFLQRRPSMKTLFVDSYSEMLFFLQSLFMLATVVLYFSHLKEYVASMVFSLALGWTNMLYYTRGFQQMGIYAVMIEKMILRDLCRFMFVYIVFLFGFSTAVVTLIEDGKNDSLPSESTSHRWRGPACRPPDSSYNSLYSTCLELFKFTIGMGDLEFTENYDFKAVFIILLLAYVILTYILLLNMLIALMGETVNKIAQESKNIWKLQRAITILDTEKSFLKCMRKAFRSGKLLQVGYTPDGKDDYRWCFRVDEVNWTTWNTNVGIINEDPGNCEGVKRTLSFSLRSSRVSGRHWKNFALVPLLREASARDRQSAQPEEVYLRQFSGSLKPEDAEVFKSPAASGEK

The compounds below were run against T1, human VR1 (Homo sapiens, UniProt Q8NER1) (assay: Receptor binding assay ([3H]RTX) using membrane of human VR1 stably expressing HEK 293 cell). Conditions: [3H]RTX binding, VR1/HEK 293 membrane sample, 37° C. 60 minutes; read-out: VR1 receptor binding inhibitory activity, IC50 value.
T1 construct: A complete length cDNA coding for human VR1 was obtained; expressed in transfected cells
Protocol: 1. Receptor Binding Assay Using VR1 Stably Expressing Cell
1) Construction of Human VR1 Stably Expressing Cell
A complete length cDNA coding for human VR1 was obtained by the following method. Firstly, a first strand cDNA was synthesized by carrying out reverse transcription of human brain mRNA using a reverse transcriptase. Next, PCR by Hot Start method was carried out using this first strand cDNA as the template and using Taq DNA polymerase. In the aforementioned PCR, an oligonucleotide consisting of the 424th to 443rd nucleotide sequence of a conventionally known human VR1 cDNA sequence (Genbank AJ277028.1) was used as the sense primer, and an oligonucleotide consisting of a complementary chain sequence of the 3082nd to 3100th nucleotide sequence as the antisense primer, and thermal denaturation was firstly carried out at 98° C. (1 minute) and then a cycle consisting of 98° C. (15 seconds)/63° C. (30 seconds)/72° C. (3 minutes) was repeated 35 times.
Cloning of the thus amplified DNA fragment was carried out using pCR-XL-TOPO vector (TOPO XL PCR Cloning Kit; Invitrogen, USA). The human VR1-cDNA alone was isolated by digesting the resulting plasmid DNA with a restriction enzyme EcoRI and then integrated into pcDNA3.1 (+) plasmid (Invitrogen, USA). In this case, the above genetic engineering operations were carried out by conventionally known methods (Sambrook, J. et al., “Molecular Cloning—A Laboratory Manual”, Cold Spring Harbor Laboratory Press, NY, 2001) and in accordance with the instructions attached to respective reagents.
Next, the resulting pcDNA3.1-VR1 was transferred into HEK 293 cell. By selecting VR1/HEK 293 cells using DMEM medium (Invitrogen, USA) containing 10% FBS, 100 μg/ml streptomycin, 100 U/ml penicillin and 400 μg/ml G 418, a receptor stably expressing cell strain was prepared. The receptor stably expressing cell was sub-cultured in the medium described in the above.
2) Preparation of Membrane Sample
The VR1/HEK 293 cell described in the above was mass-produced in a dish and then, after discarding the medium, scraped out after adding ice-cooled PBS. Centrifugation was carried out at 1000 rpm and at 4° C. for 10 minutes, and the resulting residue was homogenized by adding a homogenization buffer (25 mM Tris-HCl, 220 mM sucrose, pH 7.4) and centrifuged at 2,200 rpm and at 4° C. for 10 minutes. The resulting supernatant was centrifuged at 30,000×g and at 4° C. for 20 minutes and the resulting residue was mixed with 25 mM Tris-HCl, pH 7.4, and centrifuged at 30,000×g and at 4° C. for 20 minutes, and this operation was repeated twice. The resulting residue was suspended in 25 mM Tris-HCl, pH 7.4, and the protein concentration was determined using a protein assay staining solution (Bio-Rad, USA). The thus prepared membrane sample was stored at −80° C.
3) Receptor Binding Assay
This was carried out by modifying the method of [Neurosci., 57: 747-757 (1993)]. As the assay buffer, 25 mM Tris-HCl, 0.025% BSA, pH 7.4 was used. Each test compound, [^3H]RTX 50 μl (about 50,000 dpm; Perkin Elmer Life Science, USA) and the aforementioned membrane sample (protein quantity about 25 μg) were suspended in a microplate to a total volume of 300 μl, incubated at 37° C. for 60 minutes and then incubated on ice for 10 minutes. A 200 μg/50 μl portion of an ice-cooled α1 acid glycoprotein (AGP; Sigma) was added thereto and further incubated for 5 minutes. Completion of the incubation was carried out by rapid filtration of the reaction liquid using a GF/B filter (Perkin Elmer Life Science, USA). After 7 times of washing with ice-cooled 25 mM Tris-HCl buffer (pH 7.4), radioactivity of the filter was measured by a liquid scintillation counter. Regarding the specific binding, a part substituted by 1 μM of RTX among the total binding of [^3H]RTX with the VR1 receptor stably expressing cell membrane fraction was regarded as the specific binding originated from the VR1 receptor. Evaluation of test compounds was carried out in the following manner. […]

IC50, ≤ 5 µM:
CSCCNc1cc(Cl)ccc1C(=O)Nc1ccc2c(c1)N(C)C(=O)CC2 [Example 40]
CC1Oc2ccc(NC(=O)c3ccc(C(F)(F)F)cc3NC3CCCCC3)cc2NC1=O (stereo not drawn) [Example 73]
COCCNc1cc(Cl)ccc1C(=O)Nc1ccc2c(c1)N(C)C(=O)CC2 [Example 15]
O=C1Cc2c(cc(NC(=O)c3ccc(Cl)cc3NCCN3CCCCC3)cc2C(F)(F)F)N1 [Example 76]
CN1C(=O)CCc2ccc(NC(=O)c3ccc(Cl)cc3NC3CC4CCC3C4)cc21 (stereo not drawn) [Example 21]
CCN(CC)CCNc1cc(C(F)(F)F)ccc1C(=O)Nc1ccc2c(c1)N(C)C(=O)CC2 [Example 66]
CN1C(=O)CCc2ccc(NC(=O)c3ccc(Cl)cc3NC3CCN(Cc4ccccc4)CC3)cc21 [Example 32]
CN1C(=O)CCc2ccc(NC(=O)c3ccc(Cl)cc3NC3CC3)cc21 [Example 30]
CN1C(=O)CCc2ccc(NC(=O)c3ccc(C(F)(F)F)cc3NC3CCCC3)cc21 [Example 7]
CN1C(=O)CCc2ccc(NC(=O)c3ccc(Cl)cc3NC3CCCC3N3CCCC3)cc21 (stereo not drawn) [Example 47]
CCOCCNc1cc(Cl)ccc1C(=O)Nc1ccc2c(c1)N(C)C(=O)CC2 [Example 27]
CC(CN(C)C)Nc1cc(C(F)(F)F)ccc1C(=O)Nc1ccc2c(c1)N(C)C(=O)CC2 (stereo not drawn) [Example 43]
CCN1C(=O)CCc2ccc(NC(=O)c3ccc(Cl)cc3NC3CCCCC3)cc21 [Example 85]
CC(C)N(CCNc1cc(Cl)ccc1C(=O)Nc1ccc2c(c1)N(C)C(=O)CC2)C(C)C [Example 33]
CN1C(=O)CCc2ccc(NC(=O)c3ccc(Cl)cc3NCCN3CCOCC3)cc21 [Example 19]
Cc1nc2cc(NC(=O)c3ccc(Cl)cc3N[C@H]3CCCC[C@@H]3N3CCCC3)ccc2s1 [Example 93]
CN1C(=O)CCc2ccc(NC(=O)c3ccc(Cl)cc3NC3COCC3N3CCOCC3)cc21 (stereo not drawn) [Example 58]
CC(CN(C)C)Nc1cc(Cl)ccc1C(=O)Nc1ccc2c(c1)N(C)C(=O)CC2 (stereo not drawn) [Example 20]
Cc1ccc(NC2CCCCC2)c(C(=O)Nc2ccc3c(c2)N(C)C(=O)CC3)c1 [Example 44]
CN1CCN(C2CCCC2Nc2cc(Cl)ccc2C(=O)Nc2ccc3c(c2)N(C)C(=O)CC3)CC1 (stereo not drawn) [Example 68]
CN1C(=O)CCc2ccc(NC(=O)c3ccc(Cl)cc3NC3CCN(Cc4ccccc4)C3)cc21 (stereo not drawn) [Example 31]
CN1C(=O)CCc2ccc(NC(=O)c3ccc(-c4ccccc4)cc3NC3CCCCC3)cc21 [Example 26]
CN1C(=O)CCc2ccc(NC(=O)c3ccc(Cl)cc3NC3COCC3N3CCCCC3)cc21 (stereo not drawn) [Example 50]
Cn1c(=O)ccc2ccc(NC(=O)c3ccc(Cl)cc3NC3CCCCC3)cc21 [Example 86]
CN1C(=O)CCc2ccc(NC(=O)c3ccccc3NCCC3=CCCCC3)cc21 [Example 64]
CCN(CC)CCNc1cc(Cl)ccc1C(=O)Nc1ccc2c(c1)N(C)C(=O)CC2 [Example 39]
COCCCNc1cc(Cl)ccc1C(=O)Nc1ccc2c(c1)NC(=O)C(C)O2 (stereo not drawn) [Example 80]
CCC(COC)Nc1cc(Cl)ccc1C(=O)Nc1ccc2c(c1)N(C)C(=O)CC2 (stereo not drawn) [Example 24]
O=C1CCc2ccc(NC(=O)c3ccc(Cl)cc3N[C@H]3CCCC[C@@H]3N3CCCC3)cc2N1 [Example 92]
CN1C(=O)CCc2ccc(NC(=O)c3ccccc3NCc3ccccc3)cc21 [Example 46]
CN1C(=O)CCc2ccc(NC(=O)c3ccc(Cl)cc3NC3CCCCCC3)cc21 [Example 70]
CC1(C)Oc2ccc(NC(=O)c3ccc(Cl)cc3NC3CCCCC3)cc2NC1=O [Example 90]
CC(C)CNc1cc(Cl)ccc1C(=O)Nc1ccc2c(c1)NC(=O)C(C)O2 (stereo not drawn) [Example 74]
CN1C(=O)CCc2ccc(NC(=O)c3ccc(N4CCCCC4)cc3NC3CCCCC3)cc21 [Example 10]
CCN1CCCC1CNc1cc(Cl)ccc1C(=O)Nc1ccc2c(c1)N(C)C(=O)CC2 (stereo not drawn) [Example 12]
CC1CCCC(C)N1CCNc1cc(Cl)ccc1C(=O)Nc1ccc2c(c1)N(C)C(=O)CC2 (stereo not drawn) [Example 55]
CN1C(=O)CCc2ccc(NC(=O)c3ccc(Cl)cc3NCCN3CCCCC3)cc21 [Example 38]
Cc1nc2cc(NC(=O)c3ccc(Cl)cc3N[C@@H]3CCCC[C@H]3N3CCCC3)ccc2s1 [Example 94]
CN1C(=O)CCc2ccc(NC(=O)c3ccc(Cl)cc3NCC3CCCCN3C(=O)OC(C)(C)C)cc21 (stereo not drawn) [Example 63]
CN1C(=O)CCc2ccc(NC(=O)c3ccc(Cl)cc3NC3(CN4CCCC4)CCCCC3)cc21 [Example 71]
C[C@@H]1CN(CCNc2cc(Cl)ccc2C(=O)Nc2ccc3c(c2)N(C)C(=O)CC3)C[C@H](C)O1 [Example 60]
CN1C(=O)CCc2ccc(NC(=O)c3ccc(Cl)cc3NCC3COCCO3)cc21 (stereo not drawn) [Example 57]
CN1C(=O)CCc2ccc(NC(=O)c3c(Cl)cccc3NC3CCCCC3)cc21 [Example 45]
COCCNc1cc(C(F)(F)F)ccc1C(=O)Nc1ccc2c(c1)N(C)C(=O)CC2 [Example 34]
CCC(CC)Nc1cc(Cl)ccc1C(=O)Nc1ccc2c(c1)N(C)C(=O)CC2 [Example 17]
CC(C)CNc1cc(Cl)ccc1C(=O)Nc1ccc2c(c1)N(C)C(=O)CC2 [Example 18]
CN1C(=O)CCc2ccc(NC(=O)c3ccc(Cl)cc3NCC3CCCO3)cc21 (stereo not drawn) [Example 16]
CN(C)CC(C)(C)CNc1cc(Cl)ccc1C(=O)Nc1ccc2c(c1)N(C)C(=O)CC2 [Example 52]
CN1C(=O)CCc2ccc(NC(=O)c3ccccc3NC3CCCCC3)cc21 [Example 11]
CCN(CC)CCNc1cc(Cl)ccc1C(=O)Nc1cc2c(c(C(F)(F)F)c1)CC(=O)N2 [Example 77]
CCN(CC)C1CCCCC1Nc1cc(Cl)ccc1C(=O)Nc1ccc2c(c1)N(C)C(=O)CC2 (stereo not drawn) [Example 69]
CN1C(=O)CCc2ccc(NC(=O)c3ccc(Cl)cc3NC3CCOCC3)cc21 [Example 56]
CN1C(=O)CCc2ccc(NC(=O)c3ccc(Cl)cc3NC3CCCCC3)cc21 [Example 6]
COCC(C)Nc1cc(Cl)ccc1C(=O)Nc1ccc2c(c1)N(C)C(=O)CC2 (stereo not drawn) [Example 23]
CN1C(=O)CCc2ccc(NC(=O)c3ccc(C(F)(F)F)cc3NCCN3CCCCC3)cc21 [Example 65]
COCCNc1cc(C(F)(F)F)ccc1C(=O)Nc1ccc2c(c1)NC(=O)C(C)O2 (stereo not drawn) [Example 79]
CCN1CCCC1CNc1cc(C(F)(F)F)ccc1C(=O)Nc1ccc2c(c1)N(C)C(=O)CC2 (stereo not drawn) [Example 42]
CN1C(=O)CCc2ccc(NC(=O)c3ccc(C(F)(F)F)cc3NC3CCCCC3)cc21 [Example 8]
CN1C(=O)CCc2ccc(NC(=O)c3ccc(Cl)cc3NC3CCCC3N3CCOCC3)cc21 (stereo not drawn) [Example 49]
Cn1c(=O)ccc2ccc(NC(=O)c3ccc(Cl)cc3NC3CCCCCC3)cc21 [Example 84]
